Among the data in PubChem BioAssay AID445 (National Center for Advancing Translational Sciences (NCATS), 2006) are AC50 values, retold here.

The other results are listed elsewhere or left out. These are further read-outs of the screen, such as a control signal, another cell line or another target. No call is given for them. The list favours compounds with an active or inconclusive main result. Words in brackets tell the shape of the fitted curve; partial curves, single points and poor fits give uncertain potencies.

This assay can be described thus: IkB Signaling. The note with it: ABC-DLBCL IkBa-CBG/CBR dual luciferase ratio (green luciferase fused to IkBa over red control in OCI-Ly3 lymphoma cells), 4 h; measured here: control luc red channel unless noted. In outline:
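Luminescence ratio of IκBα-fused green versus native red beetle luciferase in OCI-Ly3 cells, 4 h post-doxycycline with compound; red signal alone, scaled from basal (0%) to zero light (-100%), flagged nonspecific or cytotoxic effects.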
`Cc1ccc(-n2nnc3c(sc4nc(C)c(C)cc43)c2=O)cc1Cl`: the half-maximal activity concentration (AC50) was 39.8 µM [falling, single point].
For the molecule `Cc1ccc(C)c(NC(=O)C2CCCN(S(=O)(=O)c3c(C)noc3/C=C/N(C)C)C2)c1` (configuration not stated), the AC50 is 25.1 µM [falling, single point].
For `O=C(NC1CCCC1)c1c[nH]c2ccc(S(=O)(=O)Nc3cccc(C(F)(F)F)c3)cc2c1=O`, the concentration at half-maximal activity (AC50) is 15.8 µM [falling, partial curve].
Regarding `CC(=O)OCC#CCSc1nnc(-c2cccc(Br)c2)o1`, the AC50 was 3.98 µM [rising, single point].
In the case of `CCN(c1ccccc1)S(=O)(=O)c1nnc(NC(=O)COc2ccc(OC)cc2)s1` it was 2 µM [rising, partial curve]; in that of `COCCNC(=O)C1CCN(S(=O)(=O)c2ccc3c(c2)CCCN3C(C)=O)CC1`, 0.0794 µM [falling, full curve, poor fit]; in that of `COc1ccc(-c2nc3n(n2)C(c2ccc(OC)cc2)C(C(=O)Nc2cccnc2)=C(C)N3)cc1` (configuration not stated), 12.6 µM [falling, partial curve].
As for `O=C(C1CCC(CNS(=O)(=O)c2ccc(Br)s2)CC1)N1CCN(c2ccccc2)CC1` (configuration not stated), the AC50 is 3.98 µM [falling, partial curve, poor fit].
In the case of `O=C(NCc1cccs1)C1CCN(S(=O)(=O)c2ccc(Br)s2)CC1` it was 31.6 µM [falling, partial curve]; in that of `CCOC(=O)CNc1c(-c2ccc(O)cc2)nc2ccc(Cl)cn12`, 31.6 µM [falling, partial curve].
For `COc1ccc(-n2ncc3c(N4CCN(c5cccc(C)c5)C(C)C4)ncnc32)cc1` (configuration not stated), the AC50 was 1.26 µM [falling, full curve].
`O=C1C(=O)c2ccccc2C(O)=C1C1CCC(c2ccc(Cl)cc2)CC1` (configuration not stated): the AC50 was 5.01 µM [falling, full curve, poor fit].
In the case of `O=C(NCc1ccc2c(c1)OCO2)c1ccc(COc2cccc(Cl)c2)o1` it was 15.8 µM [falling, partial curve]; in that of `Cc1ccc(SCc2cn3c(C)csc3n2)cc1`, 12.6 µM [falling, partial curve].
In the case of `COc1ccc(Cl)cc1NC(=O)CCc1nc(-c2ccccc2F)no1` it was 39.8 µM [falling, single point]; in that of `O=C(Cn1c(=O)n(Cc2ccc3c(c2)OCO3)c(=O)c2ccccc21)Nc1cccc(Cl)c1`, 12.6 µM [falling, partial curve].
As to `Cc1c(C(=O)N2CCCC2)oc2c1-c1nn(CC(=O)NCc3cccc(Br)c3)cc1CC2`, the AC50 is 7.94 µM [falling, partial curve].
